Laboratory results as given in US20170002011A1, “BENZENE SULFONAMIDES AS CCR9 INHIBITORS” (NORGINE B.V., priority 2013, published 2017).
The structures given here were assigned with low confidence; some may be wrong.

Sequences of proteins named here, by UniProt entry; tags and fusion partners are left off.
UniProt P51686, whole entry: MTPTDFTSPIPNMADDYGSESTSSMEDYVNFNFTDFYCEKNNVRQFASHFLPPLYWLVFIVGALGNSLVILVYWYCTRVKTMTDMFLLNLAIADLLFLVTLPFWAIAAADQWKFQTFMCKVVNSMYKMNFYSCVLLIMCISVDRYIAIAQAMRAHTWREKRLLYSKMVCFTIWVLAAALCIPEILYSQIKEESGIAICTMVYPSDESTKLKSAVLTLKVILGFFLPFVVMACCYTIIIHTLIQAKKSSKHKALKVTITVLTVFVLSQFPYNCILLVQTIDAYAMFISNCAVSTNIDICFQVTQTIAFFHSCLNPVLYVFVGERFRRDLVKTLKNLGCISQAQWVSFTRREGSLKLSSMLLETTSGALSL

Legend:
CCR9 [1] = target: T1, CCR9 (Homo sapiens, UniProt P51686); test: FLIPR calcium flux assay using MOLT4 cells (TECK stimulation); conditions: MOLT4 cells (a human T-cell line); Ki determined from IC50 of TECK-induced intracellular calcium increase
Experimental: Biological Activity: FLIPR Assay Using MOLT4 Cells
A calcium flux assay was used to determine the ability of the compounds to interfere with the binding between CCR9 and its chemokine ligand (TECK) in MOLT4 cells (a human T-cell line). MOLT4 cells were seeded (100,000 cells/well) in coming cell culture plates (Cat #3603) in assay buffer (lx HBSS, 20 mM HEPES) containing 2.5 mM Probenecid. The plate was centrifuged at 1200 rpm for 3 minutes and incubated at 37° C./5% CO2 for 2 hours. A 0.3× Fluo-4 NW calcium dye was prepared in assay buffer containing 5 mM Probenecid and stored in the dark. Each well was loaded with 25 μL of 0.3× Fluo-4 NW calcium dye and incubated at 37 C/5% CO2 for 60 minutes and then at room temperature for 30 minutes. A half-log serially diluted concentration response curve was prepared at a 4× concentration for each (10 μM-0.1 nM final assay concentration) and 25 μL of the compound then transferred to the cells (100 μL final volume) for 60 minutes prior to stimulation (30 minutes at 37° C./5% CO2 and 30 minutes at room temperature). TECK was diluted to 5× its EC50 in assay buffer (containing 0.1% [w/v] bovine serum albumin [BSA]) and 25 μL dispensed through the FLIPR instrument to stimulate the cells (125 μL final volume). The increased in intracellular calcium levels was measured with the FLIPR instrument. The potency of the compound as CCR9 antagonist was calculated as an IC50 using GraphPad Prism software (variable slope four parameter). The Ki of the compound was determined from the IC50 values using the following equation.
Ki calculation: IC50/1+(Agonist (TECK) conc. used in assay/EC50 of agonist (TECK) generated on day of experiment)

CCR9 [2] = target: T1, CCR9; test: FLIPR calcium flux assay using hCCR9 over expressed cells (TECK stimulation); conditions: Chem1-hCCR9 overexpressing cells; Ki determined from IC50 of TECK-induced intracellular calcium increase
Experimental: Biological Activity: FLIPR Assay Using hCCR9 Over Expressed Cells
A calcium flux assay was used to determine the ability of the compounds to interfere with the binding between CCR9 and its chemokine ligand (TECK) in Cheml-hCCR9 overexpressing cells. hCCR9 overexpressing cells were seeded (25,000 cells/well) into black Poly-D-Lysine coated clear bottom 96-well plates (BD Biosciences, Cat #356640) and incubated overnight at 37° C./5% CO2 in a humidified incubator. Media was aspirated and cells washed twice with 100 μL assay buffer (1×HBSS, 20 mM HEPES) containing 2.5 mM Probenecid. A 0.3× Fluo-4 NW calcium dye was prepared in assay buffer containing 5 mM Probenecid and stored in the dark. Each well was loaded with 100 μL of 0.3× Fluo-4 NW calcium dye and incubated at 37° C./5% CO2 for 60 minutes and then at room temperature for 30 minutes. […] TECK was diluted to 4× its ECso in assay buffer (containing 0.1% [w/v] bovine serum albumin[BSA]) and 50 μL dispensed through the fluorometric imaging plate reader (FLIPR) instrument to stimulate the cells (200 μL final volume). The increase in intracellular calcium levels was measured with the FLIPR instrument. The potency of the compound as a CCR9 antagonist was calculated as an IC50 using GraphPad Prism software (variable slope four parameter). The Ki of the compound was determined from the IC50 values using the following equation. […]

## CC(C)(C)c1ccc(S(=O)(=O)Nc2ccc(Cl)c3cc(-c4ccnnc4)nn23)cc1
CCR9 [1]
  Ki: 93 nM

## Cn1cc(-c2cc3c(C#N)ccc(NS(=O)(=O)c4ccc(C(C)(C)C)cc4)n3n2)cn1
CCR9 [2]
  Ki: 101 nM
CCR9 [1]
  Ki: 17 nM

## Cc1cc2nccc(NS(=O)(=O)c3ccc(N4CCCC4)cc3)n2n1
CCR9 [1]
  Ki: 1110 nM
